According to PubChem BioAssay AID1259415 (National Center for Advancing Translational Sciences (NCATS), 2018):
Where “and” joins values, the source holds several entries; their conditions need not be identical. Identical values can stand only once. Screen size: about 410,000 compounds; about 18,000 (4.4%) were called active. Inconclusive results, whose numbers are uncertain, are shown with a selection of clear calls. No stated cut-off is given here; in the data, active means activity change below about -60%; inconclusive means no clear call, values can overlap the other calls; inactive means above about -39%.

Experiment: qHTS Assay for inhibitors of the human cytomegalovirus (HCMV)
Settings: HFF cells, HCMV-luciferase reporter, 72 h; at 57.5 µM; active compounds read low
How it was run: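 After 16 h attachment at 37C, HFF cells received test compound and HCMV-luciferase (1 PFU/cell); reporter luminescence read 72 h later, data normalized against buffer-only and known inhibitor Salinomycin.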
On the % scale 0 is the no-effect control and ±100 the full control effect.

Row | SMILES | activity change, negative = inhibition
1 | COc1ccc(CCNC(=O)c2noc(C(C)C)c2[N+](=O)[O-])cc1OC | inconclusive: -55.1%
2 | COC(=O)c1ccc(NC(=O)C(=O)N2CCN(C(=S)NCCc3ccccc3)CC2)cc1 | inconclusive: -42.2%
3 | CN(C(=O)c1cccc(NC(=O)c2cccs2)c1)c1ccccc1 | inconclusive: -47.3%
4 | O=C(c1cc(COc2ccc(F)c(F)c2)on1)N1CCOCC1 | inconclusive: -42%
5 | c1cncc(CSc2nnc3ccc(-c4cccs4)nn23)c1 | inconclusive: 0%
6 | Cc1ccc(C(=O)Nc2ccc(C)c(S(=O)(=O)Nc3ccccc3Cl)c2)s1 | inconclusive: -45.7%
7 | CC(C)CC(=O)NC(=S)Nc1ccc(N2CCCC2)c(Cl)c1 | active: -62.4%
8 | Cc1nn(CC(=O)NN)c(C)c1Br | inconclusive: -58.3%
9 | Cc1cc(C)[n+](CCCC[n+]2c(C)cc(C)cc2C)c(C)c1 | inactive: 25.9%
10 | CC12CCC(=O)C=C1CC(N1CC1)C1C2CCC2(C)C(O)CCC12 (centres undefined) | inconclusive: -46.7%
11 | Cc1ccc(C2(C(=O)N3CCC(n4nc(-c5ccccc5)oc4=O)CC3)CC2)cc1 | inactive: -19.4%
12 | Nc1ccc(C(=O)O)cc1 | inconclusive: -49.7% and inconclusive: -42.1%
13 | COc1cccc(CN2CC(C(=O)N(C)Cc3[nH]c4ccccc4c3C)CCC2=O)c1 (centres undefined) | inactive: 60.7%
14 | Nc1cc(Cl)ccc1C(=O)OCC(=O)NCc1cccs1 | inactive: 0%
15 | CCOC(=O)Nc1cccc(OCC(=O)Nc2ccc3c(c2)CCC3)c1 | inconclusive: -52.1%
16 | CC(C)Cn1nc(NS(=O)(=O)c2ccccc2)c2cc3ccccc3nc21 | inactive: 8.37%
17 | CC1(C)Cc2c(c(-c3ccco3)nc3sc4c(NCCCO)ncnc4c23)CO1 | active: -65.3%
18 | N#CCC(=O)Nc1ccc(C(=O)Nc2cccc(S(N)(=O)=O)c2)cc1 | inactive: -3.45%
19 | COc1cc(NC(=O)c2ccccc2F)ccc1NC(=O)c1ccccc1Cl | inconclusive: -59%
20 | Cc1ccc2nc(C3CCCN(C(=S)Nc4ccccc4C)C3)[nH]c2c1 (centres undefined) | inconclusive: -47.3%
21 | O=C(Nc1ccc2nc(-c3cccnc3)[nH]c2c1)c1ccco1 | active: -67%
22 | Cc1cccc(NC(=O)CSc2nc3c(oc4ccccc43)c(=O)n2-c2ccccc2)c1C | inactive: -27.5%
23 | COc1ccc2c(c1)C1=C(CC2)C(c2ccc(C)cc2)NC(=S)N1 (centres undefined) | inconclusive: -43%

Row | SMILES | activity change, negative = inhibition
24 | CC(=O)N1CCCc2ccc(NS(=O)(=O)c3ccc(C)cc3)cc21 | inconclusive: -52.5%
25 | O=S(=O)(NCc1cccnc1)c1ccc(Br)c2ccccc12 | active: -62.8%
26 | COC(=O)c1ccc(C(=O)OC)c(-n2c(=O)c3ccccc3c3ccccc3c2=O)c1 | inactive: 69.2%
27 | Cc1ccccc1CN1C(=O)c2ccccc2Sc2ccc(C(=O)N3CCOCC3)cc21 | inconclusive: -44.3%
28 | CC(=O)c1[nH]c(C)c(C(=O)NCc2ccc(Cl)cc2)c1C | active: -93.6%
29 | NC1=NC(c2ccccc2C(F)(F)F)N(c2ccc(F)c(Cl)c2)C(N)=N1 (centres undefined) | inconclusive: -43.4%
30 | NC(=O)c1cnccc1C=Cc1ccccc1 | inconclusive: -57.5%
31 | CCn1nc(C)c(NC(=O)/C=C/c2ccc(OC)c(COc3ccc(Cl)cc3Br)c2)c1C | active: -63.9%
32 | COc1ccc(-c2nc(S(=O)(=O)c3ccc(Cl)cc3)c(N3CCCCCC3)o2)cc1 | inactive: -7.47%
33 | Cc1ccc(C(=O)NCCSc2c(C)[nH]c3ccccc23)cc1C | inconclusive: -46.4%
34 | Cc1cccc(-n2ccnc2SCC(=O)N2CCCc3ccccc32)c1C | inconclusive: -46.4%
35 | O=C(CCS(=O)(=O)c1cccs1)Nc1ccc(C(=O)NC2CCN(Cc3ccccc3)CC2)cc1 | inconclusive: -42.5%
36 | COC(=O)c1cc2occc2n1Cc1ccc(F)cc1Cl | inactive: -21%
37 | COc1ccc(-c2nnc(SCC#N)o2)cc1 | inactive: 4.41%
38 | Cc1cc2oc(C(=O)N3CCN(CCc4ccccn4)CC3)c(C)c2cc1C | inactive: -4.57%
39 | Cc1ccc(OCC(=O)N2CCC(N3CC(C)CC(C)C3)CC2)cc1 (centres undefined) | inconclusive: -48.8%
40 | COc1ccccc1CN1C(=O)C(C)ON=C1c1ccccc1F (centres undefined) | active: -80.4%
41 | O=C(CCC(=O)c1ccc(F)cc1)Nc1cc(Cl)cc(Cl)c1 | inconclusive: -46.9%
42 | COc1ccc(C(=O)C[n+]2cccc3cc(OC)ccc32)cc1 | active: -66.2%
43 | COc1ccc(CCNC(=O)c2cccc(S(=O)(=O)N3CCCCC3)c2)cc1 | active: -65.7%
44 | O=C(CSc1ccccc1)NNC(=O)c1ccncc1 | inactive: 3.92%
45 | Cc1ccc(Nc2nc(-c3ccc(S(=O)(=O)N4CCOCC4)cc3)cs2)cc1Cl | active: -73.8%
46 | O=C(Nc1ncc2c(n1)-c1ccccc1OC2)c1ccc(Cl)cc1 | inactive: 16.2%

Row | SMILES | activity change, negative = inhibition
47 | Cc1cc(NC(=O)CSc2nnc(-c3ccc([N+](=O)[O-])cc3)o2)no1 | inconclusive: -51.9%
48 | COC(=O)c1c(NC(=O)C2c3ccccc3Oc3ccccc32)sc2c1CCC(C)C2 (centres undefined) | inactive: 8.6%
49 | CCNC(=O)C1(C)CCN(C(=O)c2ccc3c(c2)CCO3)C1 (centres undefined) | inconclusive: -43.2%
50 | CCN(CC)CCOC(=O)c1ccc(NC(=O)C(C)NC(=O)C23CC4CC(CC(C4)C2)C3)cc1 (centres undefined) | active: -63.6%
51 | CCOC(=O)[C@]12CCC=C1N(CCC1=CCCCC1)C(=O)[C@H](CC(=O)NCc1cccs1)C2 | inactive: -3.8%
52 | CC1CC(C)CN(C(=O)c2ccc(-c3ccc([N+](=O)[O-])cc3)o2)C1 (centres undefined) | inconclusive: -50.9%
53 | Clc1ccccc1-c1nc(-c2ccncc2)no1 | inactive: 160% and inactive: 128%
54 | COCCn1c(=S)[nH]c2cc(C(=O)N3CC(C)CC(C)C3)ccc2c1=O (centres undefined) | inconclusive: -49.9%
55 | CC(=O)c1cccc(NC(=O)N2CCC(C(=O)c3ccc(F)cc3)CC2)c1 | inconclusive: -52.9%
56 | O=C1CN(C(=O)COC(=O)c2ccccc2O)c2ccccc2N1 | inactive: -38.7%
57 | O=C(CSc1ccc2nnc(-c3ccc(F)cc3)n2n1)N1CCCc2ccccc21 | active: -76.5%
58 | Cc1cc(C)n(-c2nc3cc(Cl)ccc3nc2N2CCN(c3cccc(C)c3C)CC2)n1 | inactive: 13.9%
59 | Cc1nc(C(=O)NNC(=O)c2c(-c3c(Cl)cccc3Cl)noc2C)cs1 | inconclusive: -49.2%
60 | C=CCNC(=S)/N=c1/ccccn1CC | active: -98%
61 | Cc1ncsc1CCOC(=O)c1ccccc1 | inactive: -21.4%
62 | COc1ccccc1NS(=O)(=O)c1cccc(C(=O)NCC(C)(C)N2CCOCC2)c1 | inconclusive: -58%
63 | Cc1ccnc(SCC(=O)Nc2sc3c(c2C#N)CCCC3)n1 | inactive: -39.1%
64 | COc1ccc(C(=O)Nc2ccc(C(=O)Nc3cccc(C)c3)cc2)cc1 | inconclusive: -47.3%
65 | Cc1ccc(Cl)cc1-n1c(=O)c2sc3ccccc3c2n(CC(=O)NC2CCCC2)c1=O | inactive: -13.8%
66 | COc1cc(C(C[N+](=O)[O-])c2c(-c3ccccc3)cc3ccccn23)cc(OC)c1OC (centres undefined) | inconclusive: -41.6%
67 | CC(=O)N1CCN(S(=O)(=O)c2cccc(C(=O)N(Cc3ccccc3)c3ccc(C)cc3)c2)CC1 | inconclusive: -42.9%
68 | O=c1c2ccccc2nc(/C=C/c2ccc([N+](=O)[O-])o2)n1CCCO | active: -108%
69 | O=C(CSCc1ccccc1)N/N=C/c1ccc(OCC(=O)N2CCCCC2)cc1 | active: -67.6%

Row | SMILES | activity change, negative = inhibition
70 | Cc1ccc(S(=O)(=O)c2cn(C)c3cc(N4CCOCC4)c(F)cc3c2=O)c(C)c1 | inactive: -7.42%
71 | COc1ccccc1Nc1ncc2c(n1)CCN(CC(C)C)C2 | inactive: 61.3%
72 | CC(C)N(C(=O)c1ccc(-c2ccccc2F)cc1)C(C)C | inconclusive: -53.5%
73 | O=C1C2=C(Nc3ccccc3SC2c2ccc(C(F)(F)F)cc2)c2ccccc21 (centres undefined) | active: -99.1%
74 | CCC(C)(C)NC(=O)C(c1ccccc1F)N(Cc1ccco1)C(=O)Cn1nnc2ccccc21 (centres undefined) | inconclusive: -55.1%
75 | COc1ccccc1NS(=O)(=O)c1ccc2oc(SCc3ccc(C#N)cc3)nc2c1 | active: -84.1%
76 | Cc1nc(N2CCN(C(=O)c3ccco3)CC2)c2c3c(sc2n1)CCC3 | active: -65.1%
77 | Cn1cc(CNCc2ccc(OC(F)(F)F)cc2)c(-c2ccc3c(c2)OCCO3)n1 | active: -81.3%
78 | c1ccc2c(c1)[nH]c1c(N3CCCC3)ncnc12 | inconclusive: -55.6%
79 | COc1ccc(NC(=O)CSc2ccc(F)cc2)cc1S(=O)(=O)N1CCCCC1 | inconclusive: -46.8%
80 | CCc1ccc2nc(N=C(N)N)nc(C)c2c1 | active: -86.9%
81 | N#Cc1cc(-c2ccccc2)[nH]c1-c1nccc2ccccc12 | inconclusive: -51.7%
82 | COc1ccc(OC)c(/C=N/N=C2\SCC(=O)N2Cc2ccco2)c1 | inactive: -1.58%
83 | Cc1ccc(Cl)cc1N1CCN(Cc2cc3c(cc2O)CCC3)CC1 | inconclusive: -54.7%
84 | COC(=O)CC1C(=O)NCCN1C(=S)Nc1ccccc1 (centres undefined) | inconclusive: -46.4%
85 | CC(C)NC(=O)C1(C)CN(S(C)(=O)=O)CC(=O)N1C1CCN(Cc2ccccc2)CC1 (centres undefined) | inconclusive: -53%
86 | Cc1cc(=O)oc2c(C)c(OCC(=O)NCc3ccccn3)ccc12 | inconclusive: 0%
87 | N#Cc1nc(-c2ccc(OCc3ccccc3)cc2)oc1NCc1cccnc1 | inconclusive: -46.2%
88 | CC(NC(=O)c1cccc(Nc2nc3ccccc3n3nnnc23)c1)c1ccccc1 (centres undefined) | active: -67.8%
89 | CCNc1nc(NC(C)C)nc(N(C#N)C(C)C(=O)N(C)C)n1 (centres undefined) | inactive: -16.9%
